# Assay results as given in patent US10857167B2, “Use of oligosaccharide compositions to enhance weight gain” (Children's Hospital Medical Center, priority 2015, dated 2020).
# Further values from the same series stand in other lists.
# System: distal small bowel gene expression
# Test: RNA sequencing / transcriptional analysis of small bowel 56 days after ICR (2′-FL signature response)
# Type: in vivo, mouse
# Description: Luminal small bowel contents were expressed into AllProtect Tissue Reagent (Qiagen Inc, CA). Bacterial DNA was extracted using the AllPrep DNA/RNA Mini Kit (Qiagen Inc, CA), according to kit instructions and prior to sequencing (described below). Small bowel tissue samples for RNA were placed into RNA Later (Life Technologies, NY). RNA extraction was accomplished following Qiagen RNeasy Plus Kit instruction (Qiagen Inc, CA). All nucleic acid samples were then stored at -80 Celsius until sequenced (described below). Transcriptional analysis was carried out on resected and harvested small bowel samples obtained from operated mice taken to 8 weeks. Murine RNA sequencing libraries were prepared from approximately 1.5 μg RNA using the TruSeq RNA Sample Preparation Kit (Illumina, Calif.) and sequenced using the HiSeq 2000 Sequencing System (Illumina, Calif.) with single-end 50 bp reads. Following removal of primers and barcodes, sequences were aligned to the mm10 genome using reference annotations from UCSC (Rosenbloom et al. (2015) Nucleic acids research 43: […]-681) (n=36,186 entities). Aligned reads were quantified and used to compute reads per kilobase per million mapped reads (RPKM); raw counts were then normalized using the DESeq algorithm and each harvested sample was baselined to its own resected sample. A filter was applied to the data, requiring at least three reads in all samples of at least one of the four experimental conditions (n=14,489 entities). The data discussed in this publication have been deposited in NCBI's Gene Expression Omnibus and are accessible through NCBI Gene Expression Omnibus (GEO) Series accession number GSE72590. Edgar et al. (2002) Nucleic acids research 30: 207-210. In order to characterize the impact of 2'-FL supplementation while accounting for the effect of ileoecal resection, a t-test was applied between resected and harvested samples within control and experimental animals. Significance was set at a p-value of ≤0.05 and a fold change of 3, which generated 2,576 differentially regulated entities across two comparisons. Gene set unions and intersections of the control and experimental gene sets were identified through Venn diagrams. From the master list, the gene list specific to animals supplemented with 2'-FL were removed in order to identify genes differentially regulated only by ICR (n=546 entities); this gene set characterizes the adaptive response. Further, the 2'-FL response (n=2,030 entities) was identified by removing the adaptive response signature described above from the master list, leaving only genes regulated by 2'-FL supplementation after ICR which were not found in the non-supplemented adaptive response. Heatmaps were generated using hierarchical clustering with the Pearson's Centered distance metric and the average linkage rule; both entities and samples were clustered. All genomic analyses described above were performed in Strand NGS (Strand Life Sciences, CA). Gene list functional enrichment was initially discovered using ToppFun, a member of the ToppGene Suite. Chen et al. (2009) Nucleic acids research 37: […]-311. No statistical correction was selected. Gene lists were further analyzed using ClueGO, a plugin for Cytoscape designed to decipher functionally grouped gene ontology and pathway annotation networks. Bindea et al. (2009) Bioinformatics 25: 1091-1093. At the time of data analysis, the annotation files were updated from sources to Jan. 1, 2015. “GO Term Fusion” was enabled to manage ontologic term redundancy and network specificity was set to medium. Results were restricted to pathways with p≤0.05 using Benjamini-Hochberg correction and Kappa scoring was set to 0.4. Biocyc annotations were assigned a rectangle, gene ontology biologic processes were assigned an ellipse, and […] annotations were assigned a diamond shape. No meaning was assigned to size or color. […]
smiles,measurement,setting,value
"C[C@@H]1O[C@@H](O[C@H]2[C@H](O[C@H]3[C@H](O)[C@@H](O)C(O)O[C@@H]3CO)O[C@H](CO)[C@H](O)[C@@H]2O)[C@@H](O)[C@H](O)[C@@H]1O (stereo partly drawn) [2′-FL, 2′-fucosyllactose]",Fold Change (Pre- to Post-op),gene Helz,−5.696
same,Fold Change (Pre- to Post-op),gene Hhatl,−3.096
same,Fold Change (Pre- to Post-op),gene Hip1,−4.943
same,Fold Change (Pre- to Post-op),gene Hipk2,−3.567
same,Fold Change (Pre- to Post-op),gene Hivep1,−3.83
same,Fold Change (Pre- to Post-op),gene Hk1,−6.773
same,Fold Change (Pre- to Post-op),gene Hnf1a,−3.666
same,Fold Change (Pre- to Post-op),gene Hnrnpul1,−3.801
same,Fold Change (Pre- to Post-op),gene Hoxa5,−4.596
same,Fold Change (Pre- to Post-op),gene Hoxb5,−6.299
same,Fold Change (Pre- to Post-op),gene Hoxc6,−4.595
same,Fold Change (Pre- to Post-op),gene Hpcal4,−3.525
same,Fold Change (Pre- to Post-op),gene Hpn,−4.768
same,Fold Change (Pre- to Post-op),gene Hr,−6.939
same,Fold Change (Pre- to Post-op),gene Hs6st1,−3.204
same,Fold Change (Pre- to Post-op),gene Hspg2,−3.323
same,Fold Change (Pre- to Post-op),gene Hyal1,−6.874
same,Fold Change (Pre- to Post-op),gene Iffo2,−3.093
same,Fold Change (Pre- to Post-op),gene Ift122,−5.863
same,Fold Change (Pre- to Post-op),gene Igdcc4,−5.775
same,Fold Change (Pre- to Post-op),gene Igf2bp2,−3.107
same,Fold Change (Pre- to Post-op),gene Igfbp5,−5.849
same,Fold Change (Pre- to Post-op),gene Igsf9b,−3.26
same,Fold Change (Pre- to Post-op),gene Ikzf2,−3.472
same,Fold Change (Pre- to Post-op),gene Il2ra,−3.155
same,Fold Change (Pre- to Post-op),gene Il2rg,−3.037
same,Fold Change (Pre- to Post-op),gene Il7r,−7.867
same,Fold Change (Pre- to Post-op),gene Il12rb2,−5.847
same,Fold Change (Pre- to Post-op),gene Il17rd,−8.947
same,Fold Change (Pre- to Post-op),gene Il17re,−3.161
same,Fold Change (Pre- to Post-op),gene Il27ra,−7.023
same,Fold Change (Pre- to Post-op),gene Ino80,−3.382
same,Fold Change (Pre- to Post-op),gene Inpp5d,−6.062
same,Fold Change (Pre- to Post-op),gene Insm1,−3.091
same,Fold Change (Pre- to Post-op),gene Ints1,−3.204
same,Fold Change (Pre- to Post-op),gene Ints9,−3.326
same,Fold Change (Pre- to Post-op),gene Ipo9,−3.306
same,Fold Change (Pre- to Post-op),gene Iqgap3,−4.188
same,Fold Change (Pre- to Post-op),gene Iqsec1,−8.357
same,Fold Change (Pre- to Post-op),gene Iqsec2,−3.43
same,Fold Change (Pre- to Post-op),gene Irak3,−3.099
same,Fold Change (Pre- to Post-op),gene Irf2bp1,−3.804
same,Fold Change (Pre- to Post-op),gene Irgq,−4.847
same,Fold Change (Pre- to Post-op),gene Irs1,−3.722
same,Fold Change (Pre- to Post-op),gene Itga2,−7.892
same,Fold Change (Pre- to Post-op),gene Itga4,−3.78
same,Fold Change (Pre- to Post-op),gene Itga9,−3.569
same,Fold Change (Pre- to Post-op),gene Itga11,−4.037
same,Fold Change (Pre- to Post-op),gene Itgal,−4.124
same,Fold Change (Pre- to Post-op),gene Itgax,−4.359
same,Fold Change (Pre- to Post-op),gene Itgb3,−3.231
same,Fold Change (Pre- to Post-op),gene Itgb4,−4.769
same,Fold Change (Pre- to Post-op),gene Itgb7,−3.042
same,Fold Change (Pre- to Post-op),gene Itih5,−4.018
same,Fold Change (Pre- to Post-op),gene Itpkb,−7.106
same,Fold Change (Pre- to Post-op),gene Itsn1,−3.095
same,Fold Change (Pre- to Post-op),gene Jade2,−5.906
same,Fold Change (Pre- to Post-op),gene Jag2,−6.528
same,Fold Change (Pre- to Post-op),gene Jak3,−3.992
same,Fold Change (Pre- to Post-op),gene Jph4,−3.309
same,Fold Change (Pre- to Post-op),gene Jup,−5.015
same,Fold Change (Pre- to Post-op),gene Kank2,−3.708
same,Fold Change (Pre- to Post-op),gene Kat6a,−3.614
same,Fold Change (Pre- to Post-op),gene Kat6b,−4.178
same,Fold Change (Pre- to Post-op),gene Kcna1,−6.664
same,Fold Change (Pre- to Post-op),gene Kcna5,−3.192
same,Fold Change (Pre- to Post-op),gene Kcna6,−6.135
same,Fold Change (Pre- to Post-op),gene Kcnb1,−5.01
same,Fold Change (Pre- to Post-op),gene Kcnc1,−3.997
same,Fold Change (Pre- to Post-op),gene Kcnc3,−6.358
same,Fold Change (Pre- to Post-op),gene Kcnd3,−5.102
same,Fold Change (Pre- to Post-op),gene Kcnh3,−3.024
same,Fold Change (Pre- to Post-op),gene Kcnj10,−5.742
same,Fold Change (Pre- to Post-op),gene Kcnk3,−9.12
same,Fold Change (Pre- to Post-op),gene Kcnn3,−3.74
same,Fold Change (Pre- to Post-op),gene Kcnq1ot1,−3.128
same,Fold Change (Pre- to Post-op),gene Kdm2a,−4.102
same,Fold Change (Pre- to Post-op),gene Kdm5c,−3.378
same,Fold Change (Pre- to Post-op),gene Kdm6b,−7.911
same,Fold Change (Pre- to Post-op),gene Kdr,−4.468
same,Fold Change (Pre- to Post-op),gene Khsrp,−5.078
same,Fold Change (Pre- to Post-op),gene Kif12,−3.056
same,Fold Change (Pre- to Post-op),gene Kif13a,−4.6449
same,Fold Change (Pre- to Post-op),gene Kif13b,−7.773
same,Fold Change (Pre- to Post-op),gene Kif18b,−3.088
same,Fold Change (Pre- to Post-op),gene Kif21b,−6.902
same,Fold Change (Pre- to Post-op),gene Kif26a,−8.286
same,Fold Change (Pre- to Post-op),gene Kif26b,−4.107
same,Fold Change (Pre- to Post-op),gene Kirrel,−4.23
same,Fold Change (Pre- to Post-op),gene Kit,−3.147
same,Fold Change (Pre- to Post-op),gene Klf3,−3.185
same,Fold Change (Pre- to Post-op),gene Klf5,−3.927
same,Fold Change (Pre- to Post-op),gene Klf9,−4.918
same,Fold Change (Pre- to Post-op),gene Klf13,−4.84
same,Fold Change (Pre- to Post-op),gene Klhdc7a,−6.609
same,Fold Change (Pre- to Post-op),gene Kmt2a,−5.355
same,Fold Change (Pre- to Post-op),gene Kmt2b,−3.555
same,Fold Change (Pre- to Post-op),gene Kmt2e,−4.198
same,Fold Change (Pre- to Post-op),gene Kmt2d,−5.674
same,Fold Change (Pre- to Post-op),gene Kri1,−4.889
same,Fold Change (Pre- to Post-op),gene Ksr1,−5.703
same,Fold Change (Pre- to Post-op),gene L1cam,−7.3658
same,Fold Change (Pre- to Post-op),gene L3mbtl3,−4.906
same,Fold Change (Pre- to Post-op),gene LOC100503956,−4.188
same,Fold Change (Pre- to Post-op),gene LOC101055680,−4.569
same,Fold Change (Pre- to Post-op),gene LOC101056227,−4.596
same,Fold Change (Pre- to Post-op),gene Lama5,−4.931
same,Fold Change (Pre- to Post-op),gene Lamc1,−4.219
same,Fold Change (Pre- to Post-op),gene Lamc3,−4.055
same,Fold Change (Pre- to Post-op),gene Laptm5,−5.278
same,Fold Change (Pre- to Post-op),gene Larp1,−4.205
same,Fold Change (Pre- to Post-op),gene Lcor,−4.132
same,Fold Change (Pre- to Post-op),gene Lcp1,−3.704
same,Fold Change (Pre- to Post-op),gene Lct,−3.244
same,Fold Change (Pre- to Post-op),gene Lect2,−9.259
same,Fold Change (Pre- to Post-op),gene Lhfpl4,−3.865
same,Fold Change (Pre- to Post-op),gene Lhx6,−4.02
same,Fold Change (Pre- to Post-op),gene Limch1,−4.33
same,Fold Change (Pre- to Post-op),gene Llgl1,−3.072
same,Fold Change (Pre- to Post-op),gene Lmf2,−3.353
